Drawing on article PMC7296346, this text covers binding for 2 substances.

Protein sequences, listed by entry. Tags and fused reporters are not part of them. Lines headed by an entry give the natural chain unless they say otherwise; changes in a name come on top. Chains listed by the source or under a name are the forms on record and can include a tag or linker.
UniProt P23685: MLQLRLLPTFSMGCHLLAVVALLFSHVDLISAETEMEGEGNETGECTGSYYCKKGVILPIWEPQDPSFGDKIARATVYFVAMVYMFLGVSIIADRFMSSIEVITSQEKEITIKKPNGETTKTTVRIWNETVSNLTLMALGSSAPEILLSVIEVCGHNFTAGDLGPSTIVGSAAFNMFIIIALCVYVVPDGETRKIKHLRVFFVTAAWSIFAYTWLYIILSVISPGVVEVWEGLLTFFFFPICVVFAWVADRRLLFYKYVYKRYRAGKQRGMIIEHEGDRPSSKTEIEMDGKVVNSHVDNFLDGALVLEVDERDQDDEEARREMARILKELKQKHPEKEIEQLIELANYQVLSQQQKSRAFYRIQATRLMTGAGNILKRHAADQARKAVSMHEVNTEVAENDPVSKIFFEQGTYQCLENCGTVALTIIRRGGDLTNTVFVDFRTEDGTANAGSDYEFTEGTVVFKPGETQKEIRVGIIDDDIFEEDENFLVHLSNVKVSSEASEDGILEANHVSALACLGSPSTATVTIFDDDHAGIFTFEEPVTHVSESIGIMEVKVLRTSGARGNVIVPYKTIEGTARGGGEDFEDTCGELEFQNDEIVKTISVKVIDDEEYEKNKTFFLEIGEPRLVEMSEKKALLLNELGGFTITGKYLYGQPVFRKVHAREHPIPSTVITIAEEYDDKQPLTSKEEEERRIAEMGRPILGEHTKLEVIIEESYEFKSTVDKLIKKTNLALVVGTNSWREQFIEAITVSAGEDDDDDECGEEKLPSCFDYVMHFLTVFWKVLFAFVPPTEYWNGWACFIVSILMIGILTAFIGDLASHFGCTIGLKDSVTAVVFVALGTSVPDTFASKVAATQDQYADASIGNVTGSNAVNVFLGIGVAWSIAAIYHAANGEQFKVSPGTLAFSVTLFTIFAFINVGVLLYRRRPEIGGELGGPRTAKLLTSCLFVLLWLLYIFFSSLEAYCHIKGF
K229Q XIP peptide, NCX1 219-238, with N-terminal biotin (P23685, form named): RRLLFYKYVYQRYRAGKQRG

For experiment [1], the target named is K229Q XIP peptide, NCX1 219-238, with N-terminal biotin (UniProt P23685). Nature of the experiment: pull-down; biotinylated XIP peptide with lysates of HEK cells expressing YFP fusions of NCX1 f-loop regions; captured on Streptavidin-Sepharose, eluted with SDS-PAGE loading buffer, western blot; only the target purified.
The target of experiment [2] is Canine NCX1.1 with CFP or YFP inserted at amino acid 266 (WT NCX1 FRET sensor) (canine) (UniProt P23685). Briefly: FRET or BRET; intermolecular FRET between CFP- and YFP-tagged NCX1 in live, transiently transfected NRVMs; Tyrode's buffer, room temperature; untreated or palmitic acid (20 μM, 4 h).
For experiment [3] the target is unchanged. Briefly: FRET or BRET; intermolecular FRET between CFP- and YFP-tagged NCX1 in live, transiently transfected HEK293 cells (and zDHHC5 KO cells); Tyrode's buffer, room temperature; treatments: 2-BP, SDS, MβCD, PalmB, ML348, ML349, Na-free, Ca-free, XIP peptides, PIP2 depletion.

Results are given in words; binding and its absence hold for the method and conditions named. In cells and extracts the contact can be indirect. Some binding calls cover weakened binding; strength is not graded here.

As for “YFP-NCX1 266-765 (YFP-tagged WT NCX1 f-loop) (from UniProt P23685 298-797) (domain or fragment)”, the binding entry in experiment [1] is “binds”.
Take “Canine NCX1.1 with CFP or YFP inserted at amino acid 266 (WT NCX1 FRET sensor) (from UniProt P23685 33-970)”: the binding result in experiment [2] and in experiment [3] was “binds” throughout.
